This is one part of the list. Further columns of the screen follow, without active or inactive calls. Most of these compounds were active or inconclusive in the main read-out, so they are no random draw. The note in brackets gives the kind of curve behind each potency; many fits are weak.
Experiment: qHTS Assay to Find Inhibitors of Chronic Active B-Cell Receptor Signaling
Details: ABC-DLBCL IkBa-CBG/CBR reporter, luminescence ratio (green luciferase fused to IkBa over red control in TMD8 lymphoma cells), 4 h
Outline: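 Doxycycline induced both beetle luciferases in TMD8 lymphoma cells; IKK-driven degradation limits the IkappaBalpha-fused green signal, while red luminescence normalises for cell number and nonspecific effects. Compounds tested up to 46 uM, 4 hrs.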

[1] = measured here: CBR red luminescence, cell number

| Compound | AC50 [1] | AC50 (measured here: IkBa-CBG green luminescence) |
| --- | --- | --- |
| COCCNC(=O)COc1ccccc1C | 6.51 µM [rising, single point] |  |
| O=C1/C(=C\c2ccc(O)c(O)c2)N=C2CCCCCN12 | 35.5 µM [falling, single point] |  |
| COc1cccc(Nc2nc(-c3sc(NC(=O)c4ccccc4)nc3C)cs2)c1 | 3.98 µM [falling, partial curve, poor fit] |  |
| c1ccc(CCc2nc(-c3ccncc3)no2)cc1 | 3.66 µM [rising, partial curve, poor fit] |  |
| Cc1c(C=O)c2cc(OCc3ccccc3)ccc2n1C | 35.5 µM [falling, single point] |  |
| Cn1ncc2cc(NC(=S)NC(=O)c3ccccc3)ccc21 | 0.251 µM [falling, partial curve, poor fit] |  |
| O=C(c1cccnc1)c1ncc(C(F)(F)F)cc1Cl | 3.98 µM [rising, full curve] |  |
| COc1cc2ncnc(NCc3ccccc3F)c2cc1OC | 0.316 µM [falling, full curve] |  |
| COc1ccc(N2C(=O)C3CCCN3C2c2cccc(C)c2)cc1 (centres undefined) | 29.1 µM [rising, single point] |  |
| O=C(N/N=C/c1ccc(O)c(Br)c1)c1cc2c(ccc3ccccc32)o1 | 3.55 µM [falling, full curve] |  |
| CC1N(O)C(c2ccc(Cl)cc2Cl)N(O)C1(C)C (centres undefined) | 12.6 µM [rising, single point] |  |
| O=C(CC(Nc1ccccc1Cl)C(=O)OCC(=O)c1cccs1)c1ccccc1 (centres undefined) | 10 µM [rising, partial curve] |  |
| CCc1nc(NC(=O)c2sc(C)nc2C)sc1C(=O)OC | 10 µM [falling, partial curve] |  |
| Oc1ccccc1/C=N/Nc1nccnc1Cl | 11.6 µM [falling, partial curve, poor fit] |  |
| O=C(C1=C[C@@H](c2ccc(Br)cc2)C[C@@H](OCc2ccc(CO)cc2)O1)N1CCN(Cc2ccc3c(c2)OCO3)CC1 | 15.8 µM [falling, single point] |  |
| OCCN(CCO)c1nc(-c2ccccc2)nc2c1oc1ccccc12 | 3.98 µM [falling, partial curve, poor fit] |  |
| CCn1c(C(=O)N2CCCC(C(=O)O)C2)cc2sccc21 (centres undefined) | 29.1 µM [rising, single point] |  |
| O=C(Cc1ccccc1F)Nc1nc(-c2ccc(F)cc2)cs1 | 17.8 µM [falling, single point] |  |
| COc1ccc(C(=O)N/N=C/c2ccccc2C(=O)O)cc1OC | 35.5 µM [falling, single point] |  |
| Cc1cnc(NC(=O)C2CCCC2)s1 | 0.562 µM [falling, full curve] |  |
| CC(C(N)=O)N1C(=O)C2C3C=CC(C3)C2C1=O (centres undefined) | 0.58 µM [falling, full curve, poor fit] |  |
| COc1ccc(CO[C@@H]2O[C@H](CO)[C@@H](O)[C@H](O)[C@H]2NC(C)=O)cc1OC | 35.5 µM [rising, partial curve, poor fit] |  |

Two compounds picked at random from the list so far, as already listed:

| Compound | AC50 [1] | AC50 (measured here: IkBa-CBG green luminescence) |
| --- | --- | --- |
| O=C(N/N=C/c1ccc(O)c(Br)c1)c1cc2c(ccc3ccccc32)o1 | 3.55 µM [falling, full curve] |  |
| c1ccc(CCc2nc(-c3ccncc3)no2)cc1 | 3.66 µM [rising, partial curve, poor fit] |  |

Remaining list, next part.

| Compound | AC50 [1] | AC50 (measured here: IkBa-CBG green luminescence) |
| --- | --- | --- |
| CCCC(=O)Nc1ccc(NC(=O)c2ccccc2)nc1 | 8.91 µM [falling, partial curve] |  |
| CCOC(=O)c1c(-c2ccccc2)csc1N1C(=O)Nc2ccccc2N1O | 20 µM [falling, partial curve, poor fit] |  |
| Cc1nnc(SCC(=O)Nc2ccc(Cl)cn2)[nH]c1=O | 0.651 µM [falling, full curve, poor fit] |  |
| Cc1ccc(CNC(=O)c2cc(-c3ccc(C)c(C)c3)nc3ccccc23)cc1 | 0.794 µM [rising, full curve, poor fit] |  |
| COc1cc2c(cc1OC)-c1cc(Nc3cccc(F)c3)nc(=O)n1CC2 | 17.8 µM [rising, single point] | 10 µM [falling, partial curve, poor fit] |
| Cn1c(SCC(=O)NNC(=O)Nc2ccccc2)nnc1-c1ccccc1 | 31.6 µM [rising, single point] |  |
| O=S(Cc1ccccc1)CC(O)(c1ccc(Cl)cc1)c1ccc(Cl)cc1 (centres undefined) | 28.2 µM [falling, single point] |  |
| COc1ccc(CCNC(=O)c2c[nH]c3ccccc3c2=O)cc1OC | 35.5 µM [falling, single point] |  |
| COc1ccccc1CCNC(=O)Cn1ccc2cc(S(=O)(=O)N3CCC(C)CC3)ccc21 | 3.16 µM [falling, full curve] |  |
| COC(=O)c1sc(NC(=S)NC(=O)c2ccccc2Cl)nc1C | 29.1 µM [falling, single point] |  |
| CC(=O)Cc1nsc(NC(=O)c2ccc(-c3cc(Cl)ccc3Cl)o2)n1 | 35.5 µM [falling, single point] |  |
| NCCCC[C@H]1CNC(=O)C(=O)N1CCc1cccc2ccccc12 | 35.5 µM [rising, single point] |  |
| N#Cc1ccc(-c2csc(NC(=O)c3ccc(N4C(=O)CCC4=O)cc3)n2)cc1 | 1.26 µM [falling, full curve, poor fit] |  |
| CC(=O)c1cccc(NC(=O)c2cccc(NC(=O)c3ccco3)c2)c1 | 3.98 µM [rising, full curve] |  |
| CCOC(=O)c1nc[nH]c1C | 1.84 µM [falling, partial curve] |  |
| CCCCc1cc(=O)oc2c(C)c(OCC(=O)N3CCC(C(=O)O)(c4ccccc4)CC3)ccc12 | 10 µM [falling, partial curve, poor fit] |  |
| COc1ccc(-c2csc(NC(=O)c3ccco3)n2)cc1 | 0.517 µM [rising, partial curve, poor fit] |  |
| CCN1CCN(c2nc(Nc3cccc(OC)c3)nc(N)c2[N+](=O)[O-])CC1 | 11.2 µM [falling, partial curve] |  |
| COc1ccccc1CCn1cnc2c3cc(C)ccc3n(C)c2c1=O | 0.891 µM [falling, full curve, poor fit] |  |
| COc1ccc(-c2nc(-c3cccnc3)no2)cc1 | 12.6 µM [falling, single point] |  |
| CCCN(CCC)c1c([N+](=O)[O-])c(=O)oc2ccccc12 | 16.4 µM [falling, partial curve, poor fit] |  |
